*: point of attachment. DOTA = O=C(O)CN1CCN(CC(=O)O)CCN(CC(=O)*)CCN(CC(=O)O)CC1
System: B16F10 tumor model
Test: Correlation of 68Ga-AP1 PET uptake (T/N) with efficacy of BMS-1 immunotherapy in melanoma B16F10 model
Assay type: in vivo, mice
Details: 68Ga-AP1 imaging on day 7 or 10 during BMS-1 treatment

“{DOTA}-YGRKKRRQRRRCASTEEKWARLARRIAGAGGVTLDGFGGCA-OH (N-terminus assumed; cysteines drawn unpaired) [^68Ga-AP1, metal not drawn]” was tested, and the “T/N ratio (tumor uptake/maximum uptake in contralateral muscle), immunotherapy-ineffective group” value (immunotherapy-ineffective group) was 2.32±0.5997 and the “T/N ratio (tumor uptake/maximum uptake in contralateral muscle), immunotherapy-effective group” value (tumor volume < 1000 mm^3 on day 16) was 1.11±0.2362.
